Substitutions are numbered along the chain they refer to. In names and notes the source's numbering stands. Results are given in words; binding and its absence hold for the method and conditions named. Some binding calls cover weakened binding; strength is not graded here.
What was measured:
Experiment in all cases: co-IP; Prp16p (3 μg) and Sec63-2p (1.5 μg) overnight at 4°C with protein A dynabeads and anti-Prp16p-029; 50-mM Tris-HCl pH 7.5, 150-mM NaCl, 1-mM MgSO4, 0.02% NP-40, BSA, glycogen, tRNA; with or without RNase A (30 ng/μl), ATP (5 mM) or poly I,C RNA (500 ng/μl); Sec63-2p detected with anti-His-HRP; both purified
[1] = biological target: T1, recombinant Prp16p (wild type) (budding yeast, UniProt P15938 1-1071)
T1 sequence (looked up): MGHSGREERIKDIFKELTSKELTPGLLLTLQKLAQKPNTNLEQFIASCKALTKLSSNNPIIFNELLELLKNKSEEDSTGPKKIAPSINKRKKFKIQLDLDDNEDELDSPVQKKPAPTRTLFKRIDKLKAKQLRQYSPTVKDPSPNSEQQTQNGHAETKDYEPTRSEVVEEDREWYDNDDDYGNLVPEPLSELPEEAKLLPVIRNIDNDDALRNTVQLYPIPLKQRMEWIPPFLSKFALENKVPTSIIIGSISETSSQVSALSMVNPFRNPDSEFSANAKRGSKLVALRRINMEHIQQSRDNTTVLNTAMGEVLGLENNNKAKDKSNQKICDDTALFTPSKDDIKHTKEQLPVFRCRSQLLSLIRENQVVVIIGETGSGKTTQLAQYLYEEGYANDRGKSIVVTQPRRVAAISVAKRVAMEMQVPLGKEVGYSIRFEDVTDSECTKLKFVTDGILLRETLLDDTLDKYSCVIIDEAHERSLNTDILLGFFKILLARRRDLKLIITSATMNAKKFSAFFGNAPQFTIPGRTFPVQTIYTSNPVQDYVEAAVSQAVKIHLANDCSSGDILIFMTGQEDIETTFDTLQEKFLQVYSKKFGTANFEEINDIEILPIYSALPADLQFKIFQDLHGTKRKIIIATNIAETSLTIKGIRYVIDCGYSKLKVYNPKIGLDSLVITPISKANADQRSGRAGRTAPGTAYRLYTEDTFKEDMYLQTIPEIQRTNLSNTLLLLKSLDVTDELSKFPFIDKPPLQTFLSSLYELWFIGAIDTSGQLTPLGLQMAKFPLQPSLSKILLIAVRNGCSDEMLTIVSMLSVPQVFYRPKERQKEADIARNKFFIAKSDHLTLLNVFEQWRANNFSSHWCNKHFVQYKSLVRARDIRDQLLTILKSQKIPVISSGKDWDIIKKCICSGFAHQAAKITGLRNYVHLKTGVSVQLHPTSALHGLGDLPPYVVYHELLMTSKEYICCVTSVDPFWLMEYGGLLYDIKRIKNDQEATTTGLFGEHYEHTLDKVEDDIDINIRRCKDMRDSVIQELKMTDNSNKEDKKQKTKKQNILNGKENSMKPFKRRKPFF

[2] = biological target: T2, recombinant Prp16p DE473-4AA (budding yeast) (UniProt P15938)
T2 sequence: T1 sequence (looked up) with D473A, E474A

[3] = biological target: T3, recombinant Prp16p R686I (budding yeast) (UniProt P15938)
T3 sequence: T1 sequence (looked up) with R686I

Measured: binding

B1: recombinant Brr2 Sec63-2p (domain or fragment, budding yeast, UniProt P32639 1846-2160, looked up)
chain: TLSNGLIASHYGVSFFTIQSFVSSLSNTSTLKNMLYVLSTAVEFESVPLRKGDRALLVKLSKRLPLRFPEHTSSGSVSFKVFLLLQAYFSRLELPVDFQNDLKDILEKVVPLINVVVDILSANGYLNATTAMDLAQMLIQGVWDVDNPLRQIPHFNNKILEKCKEINVETVYDIMALEDEERDEILTLTDSQLAQVAAFVNNYPNVELTYSLNNSDSLISGVKQKITIQLTRDVEPENLQVTSEKYPFDKLESWWLVLGEVSKKELYAIKKVTLNKETQQYELEFDTPTSGKHNLTIWCVCDSYLDADKELSFEI
notes: Brr2p, budding yeast, carboxy-terminal Sec63-2 domain; detected with anti-His-HRP antibodies; also called WT Sec63-2p; Brr2 Sec63-2p domain; source: E. coli BL21 RIL, purified (Hi-Trap IMAC HP charged with Ni)
binds: all assays above

B2: recombinant Brr2 Sec63-2 R1899Gp (domain or fragment, budding yeast, UniProt P32639 1846-2160, looked up)
chain: B1 chain with R54G
notes: Brr2p, budding yeast, carboxy-terminal Sec63-2 domain; also called Sec63-2 R1899G mutant protein; Brr2-R1899G mutant protein; source: E. coli BL21 RIL, purified (Hi-Trap IMAC HP charged with Ni)
binds: all assays above
